Experimental data taken from the supplement of paper PMC10849652.
Some of the results follow.

Protein sequences, listed by entry. Tags and fused reporters are not part of them. Lines headed by an entry give the natural chain unless they say otherwise; changes in a name come on top.
UniProt Q330K2: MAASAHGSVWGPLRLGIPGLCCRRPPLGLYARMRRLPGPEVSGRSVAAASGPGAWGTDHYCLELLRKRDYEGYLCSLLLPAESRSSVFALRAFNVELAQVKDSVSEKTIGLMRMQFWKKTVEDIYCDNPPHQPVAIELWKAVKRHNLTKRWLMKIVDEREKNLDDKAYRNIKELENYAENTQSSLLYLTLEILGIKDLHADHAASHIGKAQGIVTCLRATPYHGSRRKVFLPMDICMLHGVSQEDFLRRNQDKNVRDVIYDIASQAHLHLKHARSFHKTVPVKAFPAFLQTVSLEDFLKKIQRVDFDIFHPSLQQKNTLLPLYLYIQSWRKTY
UniProt Q9UQ49: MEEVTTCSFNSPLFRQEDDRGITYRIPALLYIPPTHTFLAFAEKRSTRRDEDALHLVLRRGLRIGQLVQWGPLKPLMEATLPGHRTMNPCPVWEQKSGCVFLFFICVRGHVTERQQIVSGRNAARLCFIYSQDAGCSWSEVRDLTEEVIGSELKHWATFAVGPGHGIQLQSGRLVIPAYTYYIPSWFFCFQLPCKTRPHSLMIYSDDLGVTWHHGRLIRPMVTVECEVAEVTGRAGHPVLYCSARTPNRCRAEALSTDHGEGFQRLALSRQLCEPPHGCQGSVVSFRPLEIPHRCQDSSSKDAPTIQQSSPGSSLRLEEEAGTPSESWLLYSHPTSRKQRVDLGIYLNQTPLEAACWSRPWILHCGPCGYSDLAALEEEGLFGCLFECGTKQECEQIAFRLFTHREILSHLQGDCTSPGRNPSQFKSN
UniProt Q8NEJ9: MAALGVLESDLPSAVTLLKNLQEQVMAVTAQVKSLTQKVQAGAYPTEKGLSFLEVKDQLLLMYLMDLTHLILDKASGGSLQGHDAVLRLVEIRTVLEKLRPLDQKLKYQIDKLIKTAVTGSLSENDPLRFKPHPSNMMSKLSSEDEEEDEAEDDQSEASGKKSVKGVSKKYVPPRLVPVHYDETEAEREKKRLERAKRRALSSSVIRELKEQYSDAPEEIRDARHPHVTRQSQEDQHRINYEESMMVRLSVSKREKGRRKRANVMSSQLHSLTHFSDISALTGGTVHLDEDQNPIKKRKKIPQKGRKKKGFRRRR
UniProt P56181: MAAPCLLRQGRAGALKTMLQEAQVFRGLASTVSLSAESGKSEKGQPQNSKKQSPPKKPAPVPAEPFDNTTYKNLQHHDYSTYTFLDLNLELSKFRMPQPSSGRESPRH
UniProt P12036: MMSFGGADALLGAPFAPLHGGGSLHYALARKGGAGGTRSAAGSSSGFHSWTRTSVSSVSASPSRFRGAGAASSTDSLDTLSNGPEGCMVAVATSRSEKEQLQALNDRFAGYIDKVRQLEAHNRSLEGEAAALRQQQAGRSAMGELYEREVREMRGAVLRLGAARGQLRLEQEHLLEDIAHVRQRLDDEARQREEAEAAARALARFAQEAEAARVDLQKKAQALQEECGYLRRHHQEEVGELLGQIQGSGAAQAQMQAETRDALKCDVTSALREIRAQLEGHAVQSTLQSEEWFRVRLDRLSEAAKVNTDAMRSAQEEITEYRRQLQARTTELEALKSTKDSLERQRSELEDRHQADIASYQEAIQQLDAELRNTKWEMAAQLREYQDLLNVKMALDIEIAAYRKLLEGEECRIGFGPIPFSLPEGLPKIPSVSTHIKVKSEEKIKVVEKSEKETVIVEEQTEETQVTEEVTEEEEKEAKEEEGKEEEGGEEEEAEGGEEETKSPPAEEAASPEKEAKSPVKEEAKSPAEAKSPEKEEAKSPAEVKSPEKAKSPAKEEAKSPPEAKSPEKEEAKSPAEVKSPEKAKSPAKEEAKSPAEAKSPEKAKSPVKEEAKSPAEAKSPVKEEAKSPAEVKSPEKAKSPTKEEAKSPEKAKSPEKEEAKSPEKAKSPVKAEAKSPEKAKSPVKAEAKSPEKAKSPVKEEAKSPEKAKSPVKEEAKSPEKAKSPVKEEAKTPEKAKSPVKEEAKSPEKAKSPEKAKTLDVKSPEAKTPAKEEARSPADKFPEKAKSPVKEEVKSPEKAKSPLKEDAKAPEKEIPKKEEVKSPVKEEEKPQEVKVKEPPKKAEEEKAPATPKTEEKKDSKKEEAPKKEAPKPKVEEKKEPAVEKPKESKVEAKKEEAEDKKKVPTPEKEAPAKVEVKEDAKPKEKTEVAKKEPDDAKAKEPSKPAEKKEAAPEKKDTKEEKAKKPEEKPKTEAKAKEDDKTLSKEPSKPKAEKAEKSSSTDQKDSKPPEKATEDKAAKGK
UniProt O75380, whole entry, looked up: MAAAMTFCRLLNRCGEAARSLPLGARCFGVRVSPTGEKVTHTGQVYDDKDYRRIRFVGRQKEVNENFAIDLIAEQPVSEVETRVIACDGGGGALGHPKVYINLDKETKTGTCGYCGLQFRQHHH
UniProt Q16621: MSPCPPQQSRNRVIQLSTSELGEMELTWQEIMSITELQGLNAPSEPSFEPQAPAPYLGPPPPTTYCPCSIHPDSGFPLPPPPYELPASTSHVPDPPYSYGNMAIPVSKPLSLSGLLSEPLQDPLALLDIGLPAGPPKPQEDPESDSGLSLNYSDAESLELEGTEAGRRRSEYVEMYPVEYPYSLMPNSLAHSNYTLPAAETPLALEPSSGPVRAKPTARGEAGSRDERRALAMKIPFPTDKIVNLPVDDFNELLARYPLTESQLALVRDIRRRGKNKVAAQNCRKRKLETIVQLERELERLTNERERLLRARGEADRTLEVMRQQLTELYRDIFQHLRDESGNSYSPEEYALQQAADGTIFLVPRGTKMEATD
UniProt Q6P4R8, whole entry, looked up: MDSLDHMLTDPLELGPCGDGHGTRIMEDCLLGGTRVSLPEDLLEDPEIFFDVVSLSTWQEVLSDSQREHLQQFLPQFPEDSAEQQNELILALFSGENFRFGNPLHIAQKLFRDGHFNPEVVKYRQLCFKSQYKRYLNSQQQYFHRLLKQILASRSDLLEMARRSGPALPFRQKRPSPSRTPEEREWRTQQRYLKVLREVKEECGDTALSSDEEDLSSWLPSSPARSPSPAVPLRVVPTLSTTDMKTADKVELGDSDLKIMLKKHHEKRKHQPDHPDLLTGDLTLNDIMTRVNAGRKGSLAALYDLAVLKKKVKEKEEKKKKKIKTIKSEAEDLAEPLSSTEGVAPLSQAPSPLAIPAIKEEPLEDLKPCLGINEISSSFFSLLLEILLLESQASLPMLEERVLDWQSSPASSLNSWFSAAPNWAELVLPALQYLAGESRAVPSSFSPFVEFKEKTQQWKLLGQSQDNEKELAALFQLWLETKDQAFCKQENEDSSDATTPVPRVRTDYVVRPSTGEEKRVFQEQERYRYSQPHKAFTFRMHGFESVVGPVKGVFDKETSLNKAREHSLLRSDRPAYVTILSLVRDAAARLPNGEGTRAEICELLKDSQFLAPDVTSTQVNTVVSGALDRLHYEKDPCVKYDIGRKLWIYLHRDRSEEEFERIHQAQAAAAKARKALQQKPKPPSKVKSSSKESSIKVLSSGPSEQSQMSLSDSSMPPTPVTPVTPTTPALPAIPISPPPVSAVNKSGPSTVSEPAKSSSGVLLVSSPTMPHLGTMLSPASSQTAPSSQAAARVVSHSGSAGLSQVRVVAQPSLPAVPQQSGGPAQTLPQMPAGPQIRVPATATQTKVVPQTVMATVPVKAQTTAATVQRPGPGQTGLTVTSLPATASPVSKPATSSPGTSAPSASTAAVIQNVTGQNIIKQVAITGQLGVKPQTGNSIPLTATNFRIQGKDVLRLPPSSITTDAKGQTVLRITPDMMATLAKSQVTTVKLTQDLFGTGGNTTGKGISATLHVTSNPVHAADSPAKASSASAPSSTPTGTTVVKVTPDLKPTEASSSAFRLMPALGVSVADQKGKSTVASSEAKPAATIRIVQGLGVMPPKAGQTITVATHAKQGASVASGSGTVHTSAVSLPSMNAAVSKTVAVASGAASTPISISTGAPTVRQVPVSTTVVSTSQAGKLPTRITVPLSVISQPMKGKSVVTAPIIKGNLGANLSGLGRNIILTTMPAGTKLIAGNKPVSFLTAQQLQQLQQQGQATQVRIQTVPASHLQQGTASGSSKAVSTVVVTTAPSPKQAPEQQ
UniProt Q9GZT8: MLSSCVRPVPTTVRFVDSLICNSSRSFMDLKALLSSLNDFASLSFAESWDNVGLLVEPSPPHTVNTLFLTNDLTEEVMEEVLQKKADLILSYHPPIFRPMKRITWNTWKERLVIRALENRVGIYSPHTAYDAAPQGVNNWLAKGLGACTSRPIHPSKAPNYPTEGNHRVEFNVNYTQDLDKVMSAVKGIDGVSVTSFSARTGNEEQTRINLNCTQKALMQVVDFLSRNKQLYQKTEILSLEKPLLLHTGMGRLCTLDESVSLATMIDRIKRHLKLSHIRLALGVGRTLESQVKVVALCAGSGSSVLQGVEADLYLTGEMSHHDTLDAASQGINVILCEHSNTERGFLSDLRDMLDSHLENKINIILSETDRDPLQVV
UniProt Q9UMS0: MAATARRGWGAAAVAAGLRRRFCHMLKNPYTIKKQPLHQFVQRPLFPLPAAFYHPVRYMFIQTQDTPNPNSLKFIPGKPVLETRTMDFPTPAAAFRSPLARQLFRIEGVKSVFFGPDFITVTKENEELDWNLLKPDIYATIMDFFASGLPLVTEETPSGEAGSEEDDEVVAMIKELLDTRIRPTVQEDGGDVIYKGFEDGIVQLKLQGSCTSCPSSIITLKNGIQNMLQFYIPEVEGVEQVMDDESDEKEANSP
UniProt Q5JS37: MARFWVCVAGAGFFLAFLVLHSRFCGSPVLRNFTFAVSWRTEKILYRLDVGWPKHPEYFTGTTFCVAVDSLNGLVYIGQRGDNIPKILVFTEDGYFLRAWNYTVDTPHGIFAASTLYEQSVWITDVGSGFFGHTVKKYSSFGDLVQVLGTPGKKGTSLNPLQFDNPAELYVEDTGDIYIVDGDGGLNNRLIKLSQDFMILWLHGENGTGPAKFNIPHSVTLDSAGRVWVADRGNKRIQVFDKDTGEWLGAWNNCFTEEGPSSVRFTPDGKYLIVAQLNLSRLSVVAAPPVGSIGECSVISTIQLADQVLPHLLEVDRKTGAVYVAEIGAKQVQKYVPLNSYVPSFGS
UniProt O95182, whole entry, looked up: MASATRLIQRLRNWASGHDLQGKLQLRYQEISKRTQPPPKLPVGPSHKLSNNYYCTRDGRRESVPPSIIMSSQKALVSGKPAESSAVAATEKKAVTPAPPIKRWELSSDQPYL
UniProt O75489, whole entry, looked up: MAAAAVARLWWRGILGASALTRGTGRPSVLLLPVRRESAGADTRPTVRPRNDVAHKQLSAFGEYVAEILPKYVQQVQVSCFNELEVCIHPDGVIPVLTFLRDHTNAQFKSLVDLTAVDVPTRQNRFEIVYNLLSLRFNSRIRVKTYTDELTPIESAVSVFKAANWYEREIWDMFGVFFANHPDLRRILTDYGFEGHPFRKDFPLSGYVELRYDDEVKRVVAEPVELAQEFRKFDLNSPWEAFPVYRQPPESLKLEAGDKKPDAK
UniProt Q16236, whole entry, looked up: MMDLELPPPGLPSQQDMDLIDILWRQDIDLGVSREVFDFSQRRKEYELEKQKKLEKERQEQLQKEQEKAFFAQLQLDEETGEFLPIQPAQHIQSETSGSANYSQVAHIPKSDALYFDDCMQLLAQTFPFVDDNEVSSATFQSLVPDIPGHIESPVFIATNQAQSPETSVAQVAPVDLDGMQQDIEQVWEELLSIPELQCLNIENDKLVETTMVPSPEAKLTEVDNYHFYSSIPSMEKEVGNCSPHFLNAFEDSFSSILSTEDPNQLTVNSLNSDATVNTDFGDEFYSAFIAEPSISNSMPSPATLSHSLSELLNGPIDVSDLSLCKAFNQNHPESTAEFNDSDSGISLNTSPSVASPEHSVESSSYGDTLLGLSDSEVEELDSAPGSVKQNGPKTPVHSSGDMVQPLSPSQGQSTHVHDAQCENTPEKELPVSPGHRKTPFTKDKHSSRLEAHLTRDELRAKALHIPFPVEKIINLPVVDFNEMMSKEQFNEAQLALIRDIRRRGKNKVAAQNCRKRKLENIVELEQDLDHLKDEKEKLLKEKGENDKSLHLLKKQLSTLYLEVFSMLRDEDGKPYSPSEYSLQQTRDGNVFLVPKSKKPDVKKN
UniProt Q9BS92: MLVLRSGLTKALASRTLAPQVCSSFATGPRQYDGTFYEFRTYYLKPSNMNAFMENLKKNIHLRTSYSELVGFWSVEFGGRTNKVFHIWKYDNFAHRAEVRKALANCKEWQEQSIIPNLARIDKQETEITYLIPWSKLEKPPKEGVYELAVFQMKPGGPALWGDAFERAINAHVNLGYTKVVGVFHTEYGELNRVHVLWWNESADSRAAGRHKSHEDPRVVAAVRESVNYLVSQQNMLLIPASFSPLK
UniProt Q9UFN0: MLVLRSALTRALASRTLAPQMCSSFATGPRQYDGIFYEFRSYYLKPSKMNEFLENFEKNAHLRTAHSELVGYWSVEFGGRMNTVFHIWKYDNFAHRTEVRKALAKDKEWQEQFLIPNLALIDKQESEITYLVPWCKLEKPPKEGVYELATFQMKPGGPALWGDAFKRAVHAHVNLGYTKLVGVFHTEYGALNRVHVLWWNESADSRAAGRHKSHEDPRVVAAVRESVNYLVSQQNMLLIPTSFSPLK

compound: O=C1NC(=O)C(c2cnc3ccccn23)=C1c1cn2c3c(cc(F)cc13)CN(C(=O)N1CCCCC1)CC2; assay: log2 fold change, soluble protein after heating vs DMSO (PISA); higher = thermal stabilisation; K562 lysate, 10 uM; active = over 0.2 and 3.5 SD of the protein, either way, in both replicates (recomputed)
Outline: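 Quantification was by TMTpro 16plex LC-MS/MS with equalised channel sums, applied to the supernatant after 21,000xg for 90 min. Samples were crude K562 extract at 1 mg/mL protein in PBS pH 7.4 with 1 mM MgCl2, treated with 10 μM compound for 30 min, heated for 3 min across 48°C-58°C, pooled and brought to 0.5% NP-40 at 4°C. Values are log-two fold changes in thermal stability relative to solvent controls, from duplicates.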

log2 fold change, inactive:
NDST1 (UniProt P52848) 0
NDUFAF6 (UniProt Q330K2) -0.09
NFAT5 isoform 4 (UniProt O94916) -0.062
NEU3 isoform 2 (UniProt Q9UQ49) -0.077
NIN isoform 7 (UniProt Q8N4C6) -0.014
NGDN (UniProt Q8NEJ9) -0.137
NEPRO (UniProt Q6NW34) -0.061
NDUFV3 (UniProt P56181) 0.055
NLRP1 (UniProt Q9C000) 0.787
NEFH (UniProt P12036) 0.014
NDUFS6 (UniProt O75380) -0.047
NFE2 (UniProt Q16621) 0.038
NFRKB isoform 2 (UniProt Q6P4R8) 0.101
NIF3L1 (UniProt Q9GZT8) 0.003
NFU1 (UniProt Q9UMS0) -0.003
NHLRC3 (UniProt Q5JS37) -0.008
NISCH (UniProt Q9Y2I1) -0.05
NDUFA7 (UniProt O95182) 0.015
NFATC4 isoform 2 (UniProt Q14934) 0.076
NDUFS3 (UniProt O75489) 0.042
NFE2L2 (UniProt Q16236) -0.003
NIPSNAP3B (UniProt Q9BS92) 0.116
NIPSNAP3A (UniProt Q9UFN0) 0.017

For convenience, some entries already given:
log2 fold change, inactive:
NDUFS6 (UniProt O75380) -0.047
NFE2 (UniProt Q16621) 0.038
